Laboratory results: PMC6721949
No constants are given. Whether binding was seen depends on the method and setting. In cells and extracts the contact can be indirect. Some results given as binding are weak or reduced against the parent protein; the word gives no strength. For part of these data: Where a sequence is shown, tags or fusion partners need not be part of it. Blank lines part the entries; values can stand above or below the binder they belong to.

Chains of the proteins cited; added tags and fusions are not shown. Lines headed by an entry give the natural chain unless they say otherwise; changes in a name come on top. A line that says so, or that is headed by a name, gives the form on record, which may keep a tag or linker.
BKCa channels expressed in HEK293 cells (Q12791, form named): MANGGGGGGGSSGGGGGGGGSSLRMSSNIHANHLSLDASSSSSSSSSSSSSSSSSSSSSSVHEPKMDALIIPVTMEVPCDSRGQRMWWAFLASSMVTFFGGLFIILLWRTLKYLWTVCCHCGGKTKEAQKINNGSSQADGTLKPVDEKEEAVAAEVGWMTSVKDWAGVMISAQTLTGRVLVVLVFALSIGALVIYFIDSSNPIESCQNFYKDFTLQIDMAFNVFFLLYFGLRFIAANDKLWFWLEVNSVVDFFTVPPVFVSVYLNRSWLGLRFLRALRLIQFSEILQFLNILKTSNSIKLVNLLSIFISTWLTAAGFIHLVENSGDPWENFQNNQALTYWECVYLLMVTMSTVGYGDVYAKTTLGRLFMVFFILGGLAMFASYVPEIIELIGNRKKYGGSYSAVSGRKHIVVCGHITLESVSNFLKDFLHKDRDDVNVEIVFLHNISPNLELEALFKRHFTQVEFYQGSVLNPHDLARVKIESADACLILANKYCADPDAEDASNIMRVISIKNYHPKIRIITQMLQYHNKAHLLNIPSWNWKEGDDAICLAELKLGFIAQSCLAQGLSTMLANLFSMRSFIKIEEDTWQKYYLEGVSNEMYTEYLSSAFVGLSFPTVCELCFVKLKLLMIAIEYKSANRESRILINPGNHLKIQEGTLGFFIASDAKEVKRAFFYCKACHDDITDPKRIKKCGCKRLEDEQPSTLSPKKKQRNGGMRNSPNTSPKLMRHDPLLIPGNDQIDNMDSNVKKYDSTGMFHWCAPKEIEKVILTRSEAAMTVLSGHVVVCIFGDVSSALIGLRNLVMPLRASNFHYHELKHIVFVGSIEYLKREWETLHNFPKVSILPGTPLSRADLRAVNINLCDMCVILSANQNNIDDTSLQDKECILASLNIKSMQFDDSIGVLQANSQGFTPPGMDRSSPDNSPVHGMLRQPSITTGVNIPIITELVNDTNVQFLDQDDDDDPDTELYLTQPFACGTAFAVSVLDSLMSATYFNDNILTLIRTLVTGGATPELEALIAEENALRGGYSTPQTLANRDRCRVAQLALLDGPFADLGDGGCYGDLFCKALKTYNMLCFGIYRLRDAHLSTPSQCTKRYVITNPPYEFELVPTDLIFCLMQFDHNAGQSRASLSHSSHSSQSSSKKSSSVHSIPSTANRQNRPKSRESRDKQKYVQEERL
UniProt Q62976: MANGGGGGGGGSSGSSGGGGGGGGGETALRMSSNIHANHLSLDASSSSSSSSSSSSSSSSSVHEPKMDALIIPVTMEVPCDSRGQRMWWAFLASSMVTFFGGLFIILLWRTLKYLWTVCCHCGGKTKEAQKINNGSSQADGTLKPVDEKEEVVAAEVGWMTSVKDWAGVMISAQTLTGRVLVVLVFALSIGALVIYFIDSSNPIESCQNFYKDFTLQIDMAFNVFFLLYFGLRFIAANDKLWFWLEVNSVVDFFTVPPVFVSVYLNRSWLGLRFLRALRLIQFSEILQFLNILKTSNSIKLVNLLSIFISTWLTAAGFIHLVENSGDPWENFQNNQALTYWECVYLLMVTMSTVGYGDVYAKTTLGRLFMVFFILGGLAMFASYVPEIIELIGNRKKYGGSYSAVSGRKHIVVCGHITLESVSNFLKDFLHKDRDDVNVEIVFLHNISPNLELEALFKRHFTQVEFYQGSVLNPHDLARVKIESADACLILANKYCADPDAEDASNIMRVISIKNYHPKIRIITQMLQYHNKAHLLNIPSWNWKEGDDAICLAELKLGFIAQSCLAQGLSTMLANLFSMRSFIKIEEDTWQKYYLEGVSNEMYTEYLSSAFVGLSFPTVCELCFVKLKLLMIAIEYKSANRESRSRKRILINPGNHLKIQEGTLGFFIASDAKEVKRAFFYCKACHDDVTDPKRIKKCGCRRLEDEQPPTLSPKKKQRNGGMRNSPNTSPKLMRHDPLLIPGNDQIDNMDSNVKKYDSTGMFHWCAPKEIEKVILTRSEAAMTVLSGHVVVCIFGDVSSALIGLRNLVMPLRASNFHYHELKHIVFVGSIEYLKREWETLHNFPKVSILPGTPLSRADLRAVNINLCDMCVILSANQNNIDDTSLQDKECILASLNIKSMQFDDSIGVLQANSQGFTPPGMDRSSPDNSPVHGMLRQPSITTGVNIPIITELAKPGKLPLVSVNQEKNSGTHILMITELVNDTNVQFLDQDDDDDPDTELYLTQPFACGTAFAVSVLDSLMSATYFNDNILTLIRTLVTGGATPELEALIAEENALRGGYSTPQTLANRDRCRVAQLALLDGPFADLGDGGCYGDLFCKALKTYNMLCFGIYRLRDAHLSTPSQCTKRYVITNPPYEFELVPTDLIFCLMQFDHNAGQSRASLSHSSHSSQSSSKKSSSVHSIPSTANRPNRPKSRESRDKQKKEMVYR

Assays:
[1] = biological target: VC-Cav1 (Cav1 with the C-terminal half of Venus on its N terminus) (UniProt Q03135); assay: split reporter; BiFC with Venus halves VN173 and VC155; constructs co-expressed in HEK293 cells, confocal microscopy; Venus/Hoechst ratio for Fig. 2D
[2] = biological target: BKα-VC (VC-tagged α subunit of BKCa channels) (UniProt Q12791); assay: as above
[3] = biological target: BKCa channels expressed in HEK293 cells (UniProt Q12791); assay: co-IP; HEK293 cells expressing GFP-JP2 and BKCa channels (Fig. S2B); antibody used for precipitation not told in the text shown
[4] = biological target: T1, caveolin-1 (Cav1), endogenous in rat mesenteric artery (rat (endogenous in mesenteric artery)) (UniProt P41350); assay: co-IP; extracts of rat mesenteric artery; anti-Cav1 antibody (10 μg) immobilised on AminoLink Plus Coupling Resin (Pierce Co-IP kit); immunoblot for JP2
T1 sequence: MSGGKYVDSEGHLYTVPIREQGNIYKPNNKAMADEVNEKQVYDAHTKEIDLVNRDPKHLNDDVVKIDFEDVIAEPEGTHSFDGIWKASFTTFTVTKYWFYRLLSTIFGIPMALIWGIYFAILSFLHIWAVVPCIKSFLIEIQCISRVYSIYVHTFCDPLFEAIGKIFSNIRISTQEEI

[5] = biological target: large-conductance Ca2+-activated K+ (BKCa) channel, endogenous in rat mesenteric artery (rat (endogenous in mesenteric artery)) (UniProt Q62976); assay: co-IP; rat mesenteric artery (Fig. S2A); antibody used for precipitation not told in the text shown

B3: junctophilin-2 (JP2), endogenous in rat mesenteric artery (protein, UniProt Q2PS20 1-692)
chain: MSGGRFDFDDGGAYCGGWEGGKAHGHGLCTGPKGQGEYSGSWNFGFEVAGVYTWPSGNTFEGYWSQGKRHGLGIETKGRWLYKGEWTHGFKGRYGIRQSTNSGAKYEGTWNNGLQDGYGTETYADGGTYQGQFTNGMRHGYGVRQSVPYGMAVVVRSPLRTSLSSLRSEHSNGTVAPDSPAADGPTLPLPPVPRGGFALSLLATAEAARPPGLFTRGALLGRLRRSESRTSLGSQRSRLSFLKSELSSGASDAASTGSLAEGAEGPDDAAAPFDADIDATTTETYMGEWKNDKRSGFGVSERSSGLRYEGEWLDNLRHGYGRTTLPDGHREEGKYRHNVLVKGTKRRVLPLKSNKVRQKVEHGVEGAQRAAAIARQKAEIAASRTSHAKAKAEAAEQAALAANQESNIARTLAKELAPDFYQPGPEYQKRRLLQEILENSESLLEPRERGPGTGLPERPRESPQLHERETPQPEGGPPSPAGTPPQPKRPRPGSSKDGLLSPGAWNGEPGGEGSRPATPSDGAGRRSPARPASEHMAIEALQPPPAPSREPEVALYRGYHSYAVRTGPPEPPPLEDEPEPEPEVPRSDSEPPSPVSATVQEEESPAPRSRVPAKPATLEPKPIVPKAEPKAKARKTEARGLSKAGAKKKGRKEVAQEAEAEVEVEEVPNTVLICMVILLNIGLAILFVHLLT
binding [4]: binds | binding [5]: binds

B4: JP2(276-674aa)-VN (domain or fragment, UniProt Q9BR39-1 276-674)
chain: AAPFEADIDATTTETYMGEWKNDKRSGFGVSERSSGLRYEGEWLDNLRHGYGCTTLPDGHREEGKYRHNVLVKDTKRRMLQLKSNKVRQKVEHSVEGAQRAAAIARQKAEIAASRTSHAKAKAEAAEQAALAANQESNIARTLARELAPDFYQPGPEYQKRRLLQEILENSESLLEPPDRGAGAAGLPQPPRESPQLHERETPRPEGGSPSPAGTPPQPKRPRPGVSKDGLLSPGAWNGEPSGEGSRSVTPSEGAGRRSPARPATERMAIEALQAPPAPSREPEVALYQGYHSYAVRTTPPEPPPFEDQPEPEVSGSESAPSSPATAPLQAPTLRGPEPARETPAKLEPKPIIPKAEPRAKARKTEARGLTKAGAKKKARKEAALAAEAEVEVEEVPNT
binding [1]: binds

Now from value to binder:

binding [1]: binds | binding [2]: binds
B1: VN-JP2 (full-length JP2 with the N-terminal half of Venus on its N terminus) (protein, UniProt Q9BR39-1 1-696)
chain: MSGGRFDFDDGGAYCGGWEGGKAHGHGLCTGPKGQGEYSGSWNFGFEVAGVYTWPSGNTFEGYWSQGKRHGLGIETKGRWLYKGEWTHGFKGRYGIRQSSSSGAKYEGTWNNGLQDGYGTETYADGGTYQGQFTNGMRHGYGVRQSVPYGMAVVVRSPLRTSLSSLRSEHSNGTVAPDSPASPASDGPALPSPAIPRGGFALSLLANAEAAARAPKGGGLFQRGALLGKLRRAESRTSVGSQRSRVSFLKSDLSSGASDAASTASLGEAAEGADEAAPFEADIDATTTETYMGEWKNDKRSGFGVSERSSGLRYEGEWLDNLRHGYGCTTLPDGHREEGKYRHNVLVKDTKRRMLQLKSNKVRQKVEHSVEGAQRAAAIARQKAEIAASRTSHAKAKAEAAEQAALAANQESNIARTLARELAPDFYQPGPEYQKRRLLQEILENSESLLEPPDRGAGAAGLPQPPRESPQLHERETPRPEGGSPSPAGTPPQPKRPRPGVSKDGLLSPGAWNGEPSGEGSRSVTPSEGAGRRSPARPATERMAIEALQAPPAPSREPEVALYQGYHSYAVRTTPPEPPPFEDQPEPEVSGSESAPSSPATAPLQAPTLRGPEPARETPAKLEPKPIIPKAEPRAKARKTEARGLTKAGAKKKARKEAALAAEAEVEVEEVPNTILICMVILLNIGLAILFVHLLT

binding [3]: binds
B2: GFP-JP2 (protein, UniProt Q9BR39-1 1-696)
chain: MSGGRFDFDDGGAYCGGWEGGKAHGHGLCTGPKGQGEYSGSWNFGFEVAGVYTWPSGNTFEGYWSQGKRHGLGIETKGRWLYKGEWTHGFKGRYGIRQSSSSGAKYEGTWNNGLQDGYGTETYADGGTYQGQFTNGMRHGYGVRQSVPYGMAVVVRSPLRTSLSSLRSEHSNGTVAPDSPASPASDGPALPSPAIPRGGFALSLLANAEAAARAPKGGGLFQRGALLGKLRRAESRTSVGSQRSRVSFLKSDLSSGASDAASTASLGEAAEGADEAAPFEADIDATTTETYMGEWKNDKRSGFGVSERSSGLRYEGEWLDNLRHGYGCTTLPDGHREEGKYRHNVLVKDTKRRMLQLKSNKVRQKVEHSVEGAQRAAAIARQKAEIAASRTSHAKAKAEAAEQAALAANQESNIARTLARELAPDFYQPGPEYQKRRLLQEILENSESLLEPPDRGAGAAGLPQPPRESPQLHERETPRPEGGSPSPAGTPPQPKRPRPGVSKDGLLSPGAWNGEPSGEGSRSVTPSEGAGRRSPARPATERMAIEALQAPPAPSREPEVALYQGYHSYAVRTTPPEPPPFEDQPEPEVSGSESAPSSPATAPLQAPTLRGPEPARETPAKLEPKPIIPKAEPRAKARKTEARGLTKAGAKKKARKEAALAAEAEVEVEEVPNTILICMVILLNIGLAILFVHLLT
